In article PMC4976976:
No constants are given. Whether binding was seen depends on the method and setting. In cells and extracts the contact can be indirect. Some binding calls cover weakened binding; strength is not graded here.

Chains of the proteins cited; added tags and fusions are not shown.
UniProt P17480: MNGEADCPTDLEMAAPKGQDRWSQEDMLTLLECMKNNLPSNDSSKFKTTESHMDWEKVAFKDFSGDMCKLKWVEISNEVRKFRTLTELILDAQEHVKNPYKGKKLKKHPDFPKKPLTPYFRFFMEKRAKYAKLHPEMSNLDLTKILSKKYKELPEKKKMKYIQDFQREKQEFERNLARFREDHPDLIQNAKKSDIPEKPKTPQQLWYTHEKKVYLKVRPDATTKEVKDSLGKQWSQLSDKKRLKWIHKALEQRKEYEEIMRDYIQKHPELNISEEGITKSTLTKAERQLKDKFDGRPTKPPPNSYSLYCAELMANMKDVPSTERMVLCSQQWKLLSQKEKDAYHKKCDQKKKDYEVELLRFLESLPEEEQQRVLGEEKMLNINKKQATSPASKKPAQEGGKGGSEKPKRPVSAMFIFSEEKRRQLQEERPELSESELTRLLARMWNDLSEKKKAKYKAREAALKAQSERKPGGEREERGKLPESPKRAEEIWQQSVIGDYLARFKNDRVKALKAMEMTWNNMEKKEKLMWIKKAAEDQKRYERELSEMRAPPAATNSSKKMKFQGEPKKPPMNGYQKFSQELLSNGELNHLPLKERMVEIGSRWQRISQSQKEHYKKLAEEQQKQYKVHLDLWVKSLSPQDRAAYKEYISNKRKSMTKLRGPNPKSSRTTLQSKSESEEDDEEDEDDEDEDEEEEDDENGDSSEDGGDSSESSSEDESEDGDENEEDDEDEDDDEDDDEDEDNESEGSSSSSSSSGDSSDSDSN
UniProt Q9NRC8: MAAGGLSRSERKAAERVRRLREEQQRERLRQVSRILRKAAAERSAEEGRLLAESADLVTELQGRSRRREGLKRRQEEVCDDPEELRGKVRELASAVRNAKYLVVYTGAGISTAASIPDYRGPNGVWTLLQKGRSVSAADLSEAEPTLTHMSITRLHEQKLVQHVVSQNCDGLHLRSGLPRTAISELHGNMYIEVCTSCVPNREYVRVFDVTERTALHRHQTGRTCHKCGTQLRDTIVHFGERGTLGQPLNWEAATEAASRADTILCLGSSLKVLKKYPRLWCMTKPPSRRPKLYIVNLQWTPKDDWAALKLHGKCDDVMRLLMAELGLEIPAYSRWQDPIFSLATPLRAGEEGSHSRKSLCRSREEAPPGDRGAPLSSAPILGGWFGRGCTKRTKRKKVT

What was measured:
[1] = biological target: Upstream binding factor (UBF) (human (endogenous in MCF7)) (UniProt P17480); assay: co-IP; nuclear extracts of MCF7 cells (MCF7/Ctrl) or MCF7 cells stably expressing Wnt5a (MCF7/Wnt5a); precipitated with antibodies against UBF or the autoimmune serum S57299 against Pol I, Protein G Sepharose; beads washed with 1X PBS, 1 mM PMSF, 0.2% NP-40; immunoblots
[2] = biological target: Upstream binding factor (UBF) (human (endogenous in MCF7)) (UniProt P17480); assay: condition: only in MCF7 cells stably expressing Wnt5a; co-IP; nuclear extracts of MCF7 cells stably expressing Wnt5a (MCF7/Wnt5a); precipitated with antibodies against UBF, Protein G Sepharose; beads washed with 1X PBS, 1 mM PMSF, 0.2% NP-40; immunoblots

For “Sirtuin 7 (SIRT7) (from UniProt Q9NRC8 1-400) (enzyme)”, the binding [1] was “binds” and the binding [2] was “no binding”.

B1: Dishevelled1 (DVL1) (protein, UniProt O14640 1-695)
chain: MAETKIIYHMDEEETPYLVKLPVAPERVTLADFKNVLSNRPVHAYKFFFKSMDQDFGVVKEEIFDDNAKLPCFNGRVVSWLVLAEGAHSDAGSQGTDSHTDLPPPLERTGGIGDSRPPSFHPNVASSRDGMDNETGTESMVSHRRERARRRNREEAARTNGHPRGDRRRDVGLPPDSASTALSSELESSSFVDSDEDGSTSRLSSSTEQSTSSRLIRKHKRRRRKQRLRQADRASSFSSITDSTMSLNIVTVTLNMERHHFLGISIVGQSNDRGDGGIYIGSIMKGGAVAADGRIEPGDMLLQVNDVNFENMSNDDAVRVLREIVSQTGPISLTVAKCWDPTPRSYFTVPRADPVRPIDPAAWLSHTAALTGALPRYGTSPCSSAVTRTSSSSLTSSVPGAPQLEEAPLTVKSDMSAVVRVMQLPDSGLEIRDRMWLKITIANAVIGADVVDWLYTHVEGFKERREARKYASSLLKHGFLRHTVNKITFSEQCYYVFGDLCSNLATLNLNSGSSGTSDQDTLAPLPHPAAPWPLGQGYPYQYPGPPPCFPPAYQDPGFSYGSGSTGSQQSEGSKSSGSTRSSRRAPGREKERRAAGAGGSGSESDHTAPSGVGSSWRERPAGQLSRGSSPRSQASATAPGLPPPHPTTKAYTVVGGPPGGPPVRELAAVPPELTGSRQSFQKAMGNPCEFFVDIM
For B1, the binding [1] was “binds”.
